Results as given in PubChem BioAssay AID2417 (National Center for Advancing Translational Sciences (NCATS), 2010).
The campaign covered roughly 140,000 compounds. About 4,300 (3.1%) were called active. Inconclusive results, whose numbers are uncertain, are shown with a selection of clear calls.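 The calls were made as follows: active = readout at or below -70, meaning at least 70% loss of cells showing the perinucleolar compartment, a nuclear body marking cancer cells; inconclusive = readout between -30 and a set limit; inactive = the rest.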

Experiment: High Content Assay for Compounds that inhibit the Assembly of the Perinucleolar Compartment;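 also: plate controls were DMSO wells for no effect and camptothecin positive control wells for full effect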
Conditions: PC3M PTB-GFP, PNC prevalence imaging, 16 h; at 10 µM; active compounds read low
Method in brief: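 PC3M cells stably expressing PTB-GFP, 750–1000 cells/well, treated 16 h at 37 °C with compound (23 nl of library stock), in duplicate. After paraformaldehyde fixation and Hoechst stain, imaged at 20x; PNC prevalence scored by image analysis.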

Row | SMILES | activity change (PNC), negative = inhibition
1 | COc1ccc(NC(=S)N(CCc2c(C)[nH]c3ccccc23)Cc2cccnc2)cc1 | inactive: 61.1%
2 | Cc1ccc(C(=O)Nc2nc(=O)n(C(=O)C3CC3)s2)cc1 | inconclusive: -52.4%
3 | O=C(CCNS(=O)(=O)c1ccc(Cl)cc1)NCc1ccccn1 | inconclusive: -38.1%
4 | CC(C)CNC(=O)C1CCCN1S(=O)(=O)c1ccc(Cl)cc1 (stereo not given) | inconclusive: -30.4%
5 | Cc1ccc(C2C3=C(Nc4[nH]n(-c5ccccc5)c(=O)c42)c2ccccc2C3=O)cc1 (stereo not given) | inactive: -4.45%
6 | COc1c2c(nc3occc13)C(CC=C(C)C)(OC)C(O)CC2 (stereo not given) | active: -100%
7 | FC(F)Oc1ccc(-c2csc(Cc3nnc4n3CCCCC4)n2)cc1 | active: -100%
8 | C=CCc1ccccc1OCC(O)CN1CCN(CCN2C(=O)c3cccc4cccc(c34)C2=O)CC1 (stereo not given) | inconclusive: -38.4%
9 | CCCSc1nc(N2CCOCC2)c2c(c1C#N)CCCC2 | inactive: 25.2%
10 | C[C@@H]1NC(=O)c2cc([N+](=O)[O-])cc(I)c2OCC[C@@H](C(=O)NC(CC(=O)O)C(N)=O)NC(=O)[C@H](CC(N)=O)NC1=O (stereo not given in full) | inactive: -1.98%
11 | O=C(CSc1nnc(COc2ccccc2F)n1-c1ccccc1)NCc1ccco1 | inconclusive: -57.7%
12 | O=C(CSc1ccccc1)Nc1cc(Cl)ccc1Oc1ccccc1 | inconclusive: -62.8%
13 | COc1cc([N+](=O)[O-])ccc1NC(=O)CCCOc1ccccc1 | inactive: 14.5%
14 | COc1ccc(C(=O)Nc2ccc(S(=O)(=O)N3CCCCC3C)cc2)c(OC)c1OC (stereo not given) | inconclusive: -34.1%
15 | Cc1nc2ccc(NC(=O)C3CCN(S(=O)(=O)c4cccs4)CC3)cc2s1 | inconclusive: -52.7%
16 | Cc1ccc(-n2ncc3c(Nc4c(C)n(C)n(-c5ccccc5)c4=O)ncnc32)c(C)c1 | inconclusive: -54.8%
17 | CC(=O)Oc1ccc(Cl)cc1/C=C/c1cc(OC(C)=O)c2ccccc2n1 | inconclusive: -76.6%
18 | CC1(C(=O)Nc2nccs2)Cc2ccccc2C(=O)O1 (stereo not given) | inactive: 7.92%
19 | COc1ccc(S(=O)(=O)N2CCN(C3Cc4ccccc4C3)CC2)cc1 | inconclusive: -58.7%
20 | C=CCn1c(N)c(C(=O)NCC2CCCO2)sc1=S (stereo not given) | inactive: -25%
21 | CCOCCCNS(=O)(=O)c1ccc2c(c1)CCN2C(=O)CC | active: -110%
22 | Cc1ccc(NCC(=O)N/N=C/c2cccc(Oc3ccccc3)c2)cc1 | inactive: 9.59%
23 | O=c1[nH]c2ccc(NC(=S)Nc3ccc(Cl)cc3Cl)cc2[nH]1 | inactive: 7.38%

Row | SMILES | activity change (PNC), negative = inhibition
24 | Cc1ccc(CNc2ccc(S(=O)(=O)N3CCOCC3)cc2[N+](=O)[O-])cc1 | inactive: 0.759%
25 | COC(=O)c1ccccc1NC(=O)CSc1nccn1C | inactive: 22.7%
26 | CC(=O)c1cc2c(cc1NC(=O)CN1CCN(c3ccc(F)cc3)CC1)OCO2 | inconclusive: -34%
27 | CCN(CC)c1ccc(NC(=O)CSc2nc(C)cc(=O)[nH]2)cc1 | inactive: -9.55%
28 | COC(=O)[C@@]1(Cc2ccc(OC)cc2)[C@H]2c3cc(C(=O)N(C)C)n(CCSCCO)c3C[C@H]2CN1C(=O)c1ccccc1 | inactive: 6.03%
29 | c1nnc2c3c4c(sc3ncn12)CCCC4 | inactive: 2.96%
30 | O=P1(O)C=C(c2ccccc2)OC(c2ccccc2)=C1 | inconclusive: -47.9%
31 | Cc1cccc(N2CCN(C(=O)C3CCN(c4nnc(-n5cccc5)s4)CC3)CC2C)c1 (stereo not given) | active: -112%
32 | COc1ccccc1NC(=O)CC1Nc2ccccc2NC1=O (stereo not given) | inconclusive: -31.5%
33 | COc1ccccc1N1CCN(C/C=C/c2ccc(N(C)C)cc2)CC1 | inconclusive: -77%
34 | Cc1ccc(NC(=O)c2cc(S(=O)(=O)NCCC3=CCCCC3)ccc2F)cc1 | inconclusive: -49.8%
35 | O=S(=O)(c1ccc(N2CCCC2)nc1)N1CCOCC1 | inactive: -9.2%
36 | CN1CC=C2C(C#N)=C(N)C(C#N)(C#N)[C@H](c3ccoc3)[C@H]2C1 | active: -80.9%
37 | COc1ccc(-n2cc(-c3ccc(C)cc3)[n+]3c2SCC3)cc1 | inconclusive: -46.3%
38 | CCC(C)C(=O)Nc1ccc(OC)cc1OC (stereo not given) | inactive: -20.1%
39 | CCOC(=O)c1ccc(Nc2ncnc3nc[nH]c23)cc1 | inactive: -20.3%
40 | COc1cccc(C(=O)N2CCCc3ccccc32)c1 | active: -85%
41 | CC(C)C(NC(=O)Cc1ccccc1[N+](=O)[O-])C(C)C | inactive: -22.4%
42 | c1csc(-c2nn3c(-c4ccncc4)nnc3s2)c1 | inconclusive: -40.7%
43 | O=C(Nc1ccccc1)C1=C(N2CCOCC2)/C(=C/c2cccnc2)CC1 | inactive: 36.7%
44 | Cc1c(CCOC(=O)C23CC4CC(CC(C)(C4)C2)C3)sc[n+]1Cc1ccccc1 | inconclusive: -43.9%
45 | COc1ccc(Cn2c(SC)nc3ccccc32)cc1[N+](=O)[O-] | inconclusive: -34.7%
46 | Cn1nnc(NC(=O)c2ccccc2F)n1 | inconclusive: -37.3%

Row | SMILES | activity change (PNC), negative = inhibition
47 | OCC[C@@H]1C[C@@H](O)[C@H](O)[C@]2(CCCCO2)O1 | inactive: 52.3%
48 | Cc1coc2cc3oc(=O)c(Cc4ccccc4)c(C)c3cc12 | inconclusive: -44.1%
49 | O=C(CSc1nc2ccccc2[nH]1)NC1CCCc2ccccc21 (stereo not given) | inconclusive: -42%
50 | O=C(Nc1nc2c(s1)CCCC2)c1ccc(Br)s1 | inactive: 13.8%
51 | COc1cccc(NC(=S)N/N=C2/CCCCc3ccccc32)c1 | inconclusive: -50.7%
52 | CCOc1ccccc1C(=O)NN1C(=O)CCC1=O | active: -114%
53 | O=C(N/N=C\c1cccc(OC(=O)c2ccco2)c1)c1ccc2c(c1)OCO2 | inconclusive: -78.4%
54 | CCS(=O)(=O)C(=C1Nc2ccccc2N1)S(=O)(=O)CC | inconclusive: -33.8%
55 | Cc1cc(/C=N/NC(N)=S)c(C)n1-c1ccc(Cl)c(Cl)c1 | inactive: 45.9%
56 | COc1ccc2nc(NC3=NCCC3)sc2c1 | inactive: 64.8%
57 | COc1ccc(C(=O)c2ccc(N3CCOCC3)cc2)c(OC)c1 | inconclusive: -31.7%
58 | COc1ccc(OCC(=O)Nc2cccc(C(C)=O)c2)cc1 | inconclusive: -31.5%
59 | Cc1ccc(C2C3=C(CC(C)(C)CC3=O)N(CCN3CCOCC3)C3=C2C(=O)CC(C)(C)C3)cc1 | inconclusive: -43.3%
60 | COc1ccc(/C=C/C(=O)Nc2ccc3c(c2)OCCO3)cc1OC | inactive: -11.1%
61 | CC(C)(C)NC(=O)Nc1ccccc1C(N)=O | inconclusive: -44.3%
62 | Cc1ccc(Nc2cccccc2=O)cc1 | inactive: -25%
63 | Cc1cnc(C)c(N2CCC(C(=O)NCc3ccco3)CC2)n1 | inconclusive: -43.5%
64 | CCOc1ccc(/C=N/NC(=O)C2(O)c3ccccc3-c3ccccc32)cc1 | inconclusive: -31.5%
65 | CCCCNC(=O)c1onc(CSc2ccc(F)cc2)c1C(=O)O | inactive: 69.4%
66 | COC(=O)c1cc(C(=O)Nc2ccc(S(=O)(=O)NC(C)(C)C)cc2)cc([N+](=O)[O-])c1 | inconclusive: -75.2%
67 | O=C(Nc1c2c(nn1-c1ccc(F)cc1)CS(=O)C2)C12CC3CC(CC(C3)C1)C2 (stereo not given) | inconclusive: -56.7%
68 | Cc1ccc2nc(Cl)c(/C=N/NC(=O)c3ccccc3O)cc2c1 | inconclusive: -34.1%
69 | CCn1c2ccccc2c2cc(N=C3SC(CC(=O)Nc4ccccc4OC)C(=O)N3C)ccc21 (stereo not given) | inactive: -15%

Row | SMILES | activity change (PNC), negative = inhibition
70 | O=C(CN1C(=O)c2cccc3cccc(c23)C1=O)N1CCN(c2ccccn2)CC1 | active: -104%
71 | Nc1ccc(S(=O)(=O)N2CCCc3ccccc32)cc1 | inconclusive: -62.5%
72 | Cc1cc(NC(=O)c2sc(Nc3cccc(C(F)(F)F)c3)nc2N)no1 | inconclusive: -60.7%
73 | COc1ccc(N2CCN(C(=O)Nc3cccc(C(F)(F)F)c3)CC2)cc1 | inconclusive: -35.2%
74 | COc1cccc(CNC(=O)CCS(=O)(=O)c2cccc3nsnc23)c1 | inconclusive: -39.4%
75 | N/C(COc1ccccc1)=N\NS(=O)(=O)c1ccccc1 | inconclusive: -71.4%
76 | CCCCCC(=O)Nc1cccc(-c2nc3ncccc3o2)c1 | inconclusive: -39.9%
77 | Cc1noc(C)c1C(=O)N1CCc2ccccc21 | inconclusive: -55.1%
78 | CCCCCCCCNC(=O)CCNC(=O)c1ccc(C(C)(C)C)cc1 | inactive: -3.01%
79 | N=c1oc2cc(O)ccc2cc1C(=O)Nc1nc2ccccc2s1 | inconclusive: -41.7%
80 | N#CCCn1cnc2c(=S)nc[nH]c21 | inconclusive: -53.5%
81 | COC(=O)C(C(=O)N1CCN(C)CC1)C1CCCCCC1 (stereo not given) | inconclusive: -64.1%
82 | COc1cccc(C(=O)Nc2cc3c(cc2C(C)=O)OCCO3)c1 | inactive: -0.125%
83 | Cn1c(=O)n(C)c2cc([N+](=O)[O-])c(N3CCN(C(=O)c4ccccc4Cl)CC3)cc21 | inactive: 14.1%
84 | COC(=O)C1(CCSC)NC(c2ccc(O)cc2)C2C(=O)N(c3ccc4c(c3)OCCO4)C(=O)C21 (stereo not given) | inconclusive: -74.1%
85 | COc1ccc(C(=O)/C=C/c2ccc(OC)c(Cn3nnc4ccccc43)c2)cc1 | inconclusive: -74.9%
86 | COc1ccc(-n2c(Cc3cccn3C)nnc2SCC(=O)Nc2nccs2)cc1 | active: -114%
87 | CN1CCN(c2ccc([N+](=O)[O-])cc2C(=O)c2ccc(Cl)cc2)CC1 | inconclusive: -66.3%
88 | CC(C)N(c1ccccc1)c1ncnc(NCCC(=O)O)c1[N+](=O)[O-] | inconclusive: -74.4%
89 | CCOC(=O)c1c(-c2ccccc2)csc1NC(=O)C(C)NCc1ccco1 (stereo not given) | inconclusive: -31.8%
90 | Cn1c(N)c(C(=O)COC(=O)CCCc2c[nH]c3ccccc23)c(=O)n(C)c1=O | active: -80.3%

Look-ups from the results shown.
`Cc1ccc(-n2ncc3c(Nc4c(C)n(C)n(-c5ccccc5)c4=O)ncnc32)c(C)c1` – activity change (PNC), negative = inhibition: inconclusive: -54.8%
`Cn1c(=O)n(C)c2cc([N+](=O)[O-])c(N3CCN(C(=O)c4ccccc4Cl)CC3)cc21` – activity change (PNC), negative = inhibition: inactive: 14.1%
`Cc1ccc(Nc2cccccc2=O)cc1` – activity change (PNC), negative = inhibition: inactive: -25%
`Cc1c(CCOC(=O)C23CC4CC(CC(C)(C4)C2)C3)sc[n+]1Cc1ccccc1` – activity change (PNC), negative = inhibition: inconclusive: -43.9%
